Assay results as given in article PMC12040169 (PLOS Biology, 2025).
The other results are listed elsewhere or left out.

Each molecule was assayed on T1, CTL2-GFP (C. trachomatis L2/434/Bu, GFP-expressing). Details: bulk GFP, single well; 28.5 h, 10 µM; inhibitor.
T1 construct: L2/434/Bu, GFP-expressing
Design: species or system HeLa; Intracellular C. trachomatis growth in HeLa cells, bulk GFP fluorescence relative to DMSO

| SMILES | % of control remaining [%] |
| --- | --- |
| CCCCN(C)c1c(C)nc2c(Oc3ncccn3)cccn12 [CBK147190] | 124.047 |
| COc1cc(NC(=O)N2CCN(c3cc(C(F)(F)F)ccn3)CC2)cc(OC)c1OC [CBK162349] | 104.223 |
| COc1ccc(Cl)cc1S(=O)(=O)N1CCC(C(=O)NCCO)CC1 [CBK270002] | 116.524 |
| Fc1ccc(CSc2nnc(-c3ccccn3)[nH]2)cc1 [CBK270074] | 89.3739 |
| COc1cccc(C2C(C(=O)c3ccc(Cl)cc3)=C(O)C(=O)N2CCCN2CCOCC2)c1 (stereo not shown) [CBK264865] | 105.786 |
| COC(=O)c1c(NC(=O)C(=O)NCc2ccccn2)sc2c1CCC2 [CBK269431] | 135.065 |
| Cc1c(CN2CCCC(n3cnc4cc(F)ccc43)C2)cnn1C (stereo not shown) [CBK284478] | 147.501 |
| O=C(Nc1ccsc1C(=O)O)c1ccccc1Cl [CBK152440] | 109.712 |
| COc1ccc(-c2nc3ccccc3o2)cc1NC(=O)C(C)Oc1ccc(Cl)cc1Cl (stereo not shown) [CBK266787] | 86.5412 |
| OCCN(Cc1cccnc1)Cc1cccn1Cc1ccccc1F [CBK282945] | 129.537 |
| O=C(NCCCn1ccnc1)c1ccccc1C(=O)c1ccccc1 [CBK262954] | 106.907 |
| O=C(NCc1ccccn1)c1nn[nH]c1Nc1cccc(Cl)c1 [CBK288030] | 126.119 |
| CN1CCc2c(C#N)c(N)n(N)c(=S)c2C1 [CBK264055] | 100 |
| COc1cc(OCc2ccccc2)ccc1CN1CCN(Cc2ccccc2)CC1 [CBK074766] | 137.127 |
| CC(=O)N1CCc2c(sc3nc(N)c(C(=O)NCCc4ccc(F)cc4)c(C(F)(F)F)c23)C1 [CBK269176] | 128.467 |
| CC1CNCCN1C(=O)c1cnn(-c2cccc(Cl)c2)c1 (stereo not shown) [CBK304238] | 98.2572 |
| Cc1cc(NS(=O)(=O)c2cnn(-c3ccccc3)c2C)n(C)n1 [CBK067252] | 106.227 |
| Cc1oc2ccccc2c1CN(CCN(C)C)Cc1ccncc1 [CBK283097] | 121.93 |
| O=C(NCc1c(O)c(Cl)cc(Cl)c1Cl)c1ccccc1 [CBK260920] | 89.6533 |
| Cc1ccc(NC(=O)Cc2cn(C)c3ccccc23)c(C)n1 [CBK200298] | 125.436 |
| CC(C)(C)c1cc(CN(Cc2cc(C(C)(C)C)c(O)c(C(C)(C)C)c2)/N=C\c2ccccc2O)cc(C(C)(C)C)c1O [CBK261990] | 107.215 |
| CC(C)Nc1ncnc2scc(-c3cccs3)c12 [CBK017085] | 104.315 |

Ordered by molar mass (rising): 3 of the compounds above.

| SMILES | % of control remaining [%] |
| --- | --- |
| Fc1ccc(CSc2nnc(-c3ccccn3)[nH]2)cc1 [CBK270074] | 89.3739 |
| COc1cc(NC(=O)N2CCN(c3cc(C(F)(F)F)ccn3)CC2)cc(OC)c1OC [CBK162349] | 104.223 |
| CC(C)(C)c1cc(CN(Cc2cc(C(C)(C)C)c(O)c(C(C)(C)C)c2)/N=C\c2ccccc2O)cc(C(C)(C)C)c1O [CBK261990] | 107.215 |
